Patent US20050124699A1, “Drugs for treating or preventing disorders of corneal and/or conjunctival epithelial cells” (WAKAMOTO PHARMACEUTICAL CO., LTD., priority 2002, published 2005)
At least one compound was matched to its structure with a doubt left.

Key:
[1] = system: Chang's human conjunctival epithelial cell strain (CCL-20.2); assay type: cell-based
Procedure: Cells Used: The corneal cell used herein was SV40 immortalized human corneal epithelial cell strain (HCEC) (Araki-Sasaki et al., IOVS, 1995, 36:614-621) and the conjunctival cell used herein was Chang's human conjunctival epithelial cell strain (CCL-20.2) (ATC CCCL-20.2).
Experiments: The cells were cultivated to a density of 5×10^4 cells/mL in a growth medium containing 10% serum, inoculated in a 96-well multiplate in an amount of 100 μL/well and cultivated at 37° C. overnight. After the cultivation thereof to a confluent of 30 to 50%, the culture medium was dissolved in a fresh culture medium, followed by the addition of stepwise diluted MS and further diclofenac sodium and the subsequent cultivation at 37° C. for 24 hours. After the cultivation, each well was washed, followed by the addition of a fresh culture medium (100 μL/well) and WST-8 (10 μL/well; Cell Counting Kit-8 available from DOJIN Chemical Co., Ltd.), subsequent cultivation for 1.5 hour and the determination of the absorbance at 450-660 nm to thus calculate the viable cell count.
Method for Evaluating Toxicity: A test group free of any candidate compound was used as a negative control, the absorbance thereof was assumed to be 100% and a dose-correlation curve was prepared, which was expressed as the cell survival rates as a function of the concentration of each test substance.

corneal epithelial cells = settings: cited from earlier work

CCCCC(C)(O)C/C=C/[C@H]1[C@H](O)CC(=O)[C@@H]1CCCCCCC(=O)OC (mixture of isomers) [Misoprostol]
effect of MS on the cell proliferation-inhibitory action of diclofenac sodium ([1]; MS 0.1, 1 and 10 μM): could eliminate the cell proliferation-inhibitory action | effect of MS at a high concentration of diclofenac sodium ([1]; high concentration of diclofenac sodium): reduced

COc1ccc2c(c1)c(CC(=O)O)c(C)n2C(=O)c1ccc(Cl)cc1 [indometacin]
effect on epithelium extension promoted by EGF (corneal epithelial cells; added simultaneously with EGF): inhibit the epithelium extension-promoting effect due to the EGF | effect on extension of the corneal epithelial cells (corneal epithelial cells; agent alone): does not affect the extension of the corneal epithelial cells
